Positions count from the first letter of the chain named. This is one part of the list. For some of these results: At the low end of the ranking the order means little. For some of these results: The source does not settle which construct or isoform was used.

The values below come from article PMC8384837.

What all share (conditions): yeast three-hybrid, YBZ-1, SC-Leu-His + 0.5 mM 3-AT, 4 days
Experiment [1] concerns the target T1, PUM1 PUF domain R1-QFR R2-VFQ R7-NPG S863Q + R864F + Q867R + N899V + Y900F + S1079N + N1080P + E1083G (UniProt Q14671).
T1 sequence: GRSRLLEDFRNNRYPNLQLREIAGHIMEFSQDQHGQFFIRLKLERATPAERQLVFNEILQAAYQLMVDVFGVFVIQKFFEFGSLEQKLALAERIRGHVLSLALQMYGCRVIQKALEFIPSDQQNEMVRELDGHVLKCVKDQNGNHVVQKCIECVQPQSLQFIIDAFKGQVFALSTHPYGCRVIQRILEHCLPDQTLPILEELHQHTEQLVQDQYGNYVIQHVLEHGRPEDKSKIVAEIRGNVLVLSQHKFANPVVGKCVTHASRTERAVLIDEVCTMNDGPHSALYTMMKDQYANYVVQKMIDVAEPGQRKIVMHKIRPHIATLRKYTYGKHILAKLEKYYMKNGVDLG

The target in experiment [2] is T2, PUM1 PUF domain R3-THE R4-TFR C935T + R936H + Q939E + N971T + H972F + Q975R (UniProt Q14671).
T2 sequence: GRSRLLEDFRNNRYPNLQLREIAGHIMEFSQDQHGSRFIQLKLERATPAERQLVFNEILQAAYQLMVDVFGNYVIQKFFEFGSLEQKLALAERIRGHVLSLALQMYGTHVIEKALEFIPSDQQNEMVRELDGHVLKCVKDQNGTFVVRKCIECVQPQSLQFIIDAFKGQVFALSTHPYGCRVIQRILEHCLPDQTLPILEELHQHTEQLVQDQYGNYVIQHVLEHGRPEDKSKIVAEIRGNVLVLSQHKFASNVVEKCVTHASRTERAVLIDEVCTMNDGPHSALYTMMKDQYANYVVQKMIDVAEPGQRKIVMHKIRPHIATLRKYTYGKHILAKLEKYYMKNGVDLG

In experiment [3] the target is T3, PUM1 PUF domain R6-SWD R7-NPG N1043S + Y1044W + Q1047D + S1079N + N1080P + E1083G (Homo sapiens) (UniProt Q14671).
T3 sequence: T1 sequence with Q36S, F37R, R40Q, V72N, F73Y, N216S, Y217W, Q220D

In experiment [4] the target is T4, PUM1 PUF domain R5-PHQ R6-SWD C1007P + R1008H + N1043S + Y1044W + Q1047D (UniProt Q14671).
T4 sequence: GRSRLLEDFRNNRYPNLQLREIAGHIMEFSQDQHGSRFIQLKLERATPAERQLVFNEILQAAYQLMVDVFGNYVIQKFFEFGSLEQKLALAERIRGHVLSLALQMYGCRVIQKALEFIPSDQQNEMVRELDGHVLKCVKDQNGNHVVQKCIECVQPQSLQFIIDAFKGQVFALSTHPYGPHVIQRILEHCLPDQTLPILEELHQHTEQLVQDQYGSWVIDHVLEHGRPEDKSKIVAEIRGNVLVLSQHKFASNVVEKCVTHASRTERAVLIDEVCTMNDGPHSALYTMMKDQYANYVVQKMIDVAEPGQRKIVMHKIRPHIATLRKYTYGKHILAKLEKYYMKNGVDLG

Experiment [5] addresses T5, PUM1 PUF domain R6-SWD R7-NPG N1043S + Y1044W + Q1047D + S1079N + N1080P + E1083G (UniProt Q14671).
T5 sequence: T4 sequence with P180C, H181R, S252N, N253P, E256G

As for “GGCUAGAACUAGUGGAUCCCCCGGCGCCCGGCGGCUCGAGCCCGGGUAAGUAUAAGUGGUCUGCAUGCCGCCGGGCGCCAUGCCUGCAGGUCGACUCUAGAAAACAUG”, the binding signal (log2 enrichment (interaction score)) in experiment [1] was -5.86; in experiment [2], under -6.78; in experiment [3], -0.76.
On to “GGCUAGAACUAGUGGAUCCCCCGGCGCCCGGCGGCUCGAGCCCGGGUAAGUUAACGUAGUCUGCAUGCCGCCGGGCGCCAUGCCUGCAGGUCGACUCUAGAAAACAUG”, for which the binding signal (log2 enrichment (interaction score)) in experiment [1] is -5.37; in experiment [2], -7.38; in experiment [4], under -8.34; in experiment [3], -1.33.
Consider “GGCUAGAACUAGUGGAUCCCCCGGCGCCCGGCGGCUCGAGCCCGGGUAAGUAGAAGCAGUCUGCAUGCCGCCGGGCGCCAUGCCUGCAGGUCGACUCUAGAAAACAUG”, for which the results for the binding signal (log2 enrichment (interaction score)) in experiment [1], in experiment [2] and in experiment [4] were -5.6, -7.24 and under -7.85, respectively.
Take “GGCUAGAACUAGUGGAUCCCCCGGCGCCCGGCGGCUCGAGCCCGGGUAAGUUUCAGUAGUCUGCAUGCCGCCGGGCGCCAUGCCUGCAGGUCGACUCUAGAAAACAUG”: the values for the binding signal (log2 enrichment (interaction score)) in experiment [1], in experiment [2] and in experiment [4] were -3.58, -6.12 and under -7.41, respectively.
As for “GGCUAGAACUAGUGGAUCCCCCGGCGCCCGGCGGCUCGAGCCCGGGUAAGAAGACAUGGUCUGCAUGCCGCCGGGCGCCAUGCCUGCAGGUCGACUCUAGAAAACAUG”, the figures for the binding signal (log2 enrichment (interaction score)) in experiment [1], in experiment [2] and in experiment [4] were -5.79, -7.25 and under -7.19, respectively.
Consider “GGCUAGAACUAGUGGAUCCCCCGGCGCCCGGCGGCUCGAGCCCGGGUAAGGGAACAUAGUCUGCAUGCCGCCGGGCGCCAUGCCUGCAGGUCGACUCUAGAAAACAUG”, for which the binding signal (log2 enrichment (interaction score)) in experiment [1] is -3.89; in experiment [2], under -5.89; in experiment [4], -6.7.
For “GGCUAGAACUAGUGGAUCCCCCGGCGCCCGGCGGCUCGAGCCCGGGUAAGUGUACAUUGUCUGCAUGCCGCCGGGCGCCAUGCCUGCAGGUCGACUCUAGAAAACAUG”, in that order: -6.94, -6.31 and -8.4.
Regarding “GGCUAGAACUAGUGGAUCCCCCGGCGCCCGGCGGCUCGAGCCCGGGUAAGUGCAAGUAGUCUGCAUGCCGCCGGGCGCCAUGCCUGCAGGUCGACUCUAGAAAACAUG”, the binding signal (log2 enrichment (interaction score)) in experiment [1] is -6.5; in experiment [2], -6.43; in experiment [4] it was -7.29.
For the sequence “GGCUAGAACUAGUGGAUCCCCCGGCGCCCGGCGGCUCGAGCCCGGGUAAGUGGCAAUUGUCUGCAUGCCGCCGGGCGCCAUGCCUGCAGGUCGACUCUAGAAAACAUG”, the binding signal (log2 enrichment (interaction score)) was -6.79 in experiment [1], under -7.09 in experiment [2] and -7.8 in experiment [4].
With “GGCUAGAACUAGUGGAUCCCCCGGCGCCCGGCGGCUCGAGCCCGGGUAAGUGGAAGGCGUCUGCAUGCCGCCGGGCGCCAUGCCUGCAGGUCGACUCUAGAAAACAUG”, the binding signal (log2 enrichment (interaction score)) is -5.3 in experiment [1], under -6.79 in experiment [2] and under -9.03 in experiment [4].
On to “GGCUAGAACUAGUGGAUCCCCCGGCGCCCGGCGGCUCGAGCCCGGGUAAGCGUAAAGUGUCUGCAUGCCGCCGGGCGCCAUGCCUGCAGGUCGACUCUAGAAAACAUG”, for which the binding signal (log2 enrichment (interaction score)) in experiment [1] is -6.92; in experiment [2], -6.6; in experiment [4], -7.27.
Turning to “GGCUAGAACUAGUGGAUCCCCCGGCGCCCGGCGGCUCGAGCCCGGGUAAGCUGUAGUAGUCUGCAUGCCGCCGGGCGCCAUGCCUGCAGGUCGACUCUAGAAAACAUG”, the binding signal (log2 enrichment (interaction score)) in experiment [1] was -5.63; in experiment [2] it was -7.1; in experiment [4], under -7.25; in experiment [3], -1.28.
Take “GGCUAGAACUAGUGGAUCCCCCGGCGCCCGGCGGCUCGAGCCCGGGUAAGUGUAUGAAGUCUGCAUGCCGCCGGGCGCCAUGCCUGCAGGUCGACUCUAGAAAACAUG”: the binding signal (log2 enrichment (interaction score)) in experiment [1] is -6.28; in experiment [2], -5.72; in experiment [4], under -8.02; in experiment [5], -2.08.
On to “GGCUAGAACUAGUGGAUCCCCCGGCGCCCGGCGGCUCGAGCCCGGGUAAGUACACACAGUCUGCAUGCCGCCGGGCGCCAUGCCUGCAGGUCGACUCUAGAAAACAUG”, for which the figures for the binding signal (log2 enrichment (interaction score)) in experiment [1], in experiment [2] and in experiment [4] were -4.42, under -6.59 and -8, respectively.
In the case of “GGCUAGAACUAGUGGAUCCCCCGGCGCCCGGCGGCUCGAGCCCGGGUAAGUGUACCAAGUCUGCAUGCCGCCGGGCGCCAUGCCUGCAGGUCGACUCUAGAAAACAUG”, the binding signal (log2 enrichment (interaction score)) in experiment [1] was -6.37; in experiment [2], -6.61; in experiment [4] it was under -7.14; in experiment [3] it was -1.72.
For “GGCUAGAACUAGUGGAUCCCCCGGCGCCCGGCGGCUCGAGCCCGGGUAAGUGUACAUCGUCUGCAUGCCGCCGGGCGCCAUGCCUGCAGGUCGACUCUAGAAAACAUG”, in that order: -5.66, -7.65, -8.63 and -0.94.
Regarding “GGCUAGAACUAGUGGAUCCCCCGGCGCCCGGCGGCUCGAGCCCGGGUAAGGUGAGGUAGUCUGCAUGCCGCCGGGCGCCAUGCCUGCAGGUCGACUCUAGAAAACAUG”, the binding signal (log2 enrichment (interaction score)) in experiment [1] was -6.33; in experiment [2], under -7.7; in experiment [4] it was under -8.58.
Turning to “GGCUAGAACUAGUGGAUCCCCCGGCGCCCGGCGGCUCGAGCCCGGGUAAGUCGAGAUAGUCUGCAUGCCGCCGGGCGCCAUGCCUGCAGGUCGACUCUAGAAAACAUG”, the binding signal (log2 enrichment (interaction score)) in experiment [1] was -5.75; in experiment [2], -6.77; in experiment [4], -6.62; in experiment [3], -0.57.
Regarding “GGCUAGAACUAGUGGAUCCCCCGGCGCCCGGCGGCUCGAGCCCGGGUAAGUAGGAGUCGUCUGCAUGCCGCCGGGCGCCAUGCCUGCAGGUCGACUCUAGAAAACAUG”, the binding signal (log2 enrichment (interaction score)) was -5.63 in experiment [1], under -7.21 in experiment [2] and -7.99 in experiment [4].
For the sequence “GGCUAGAACUAGUGGAUCCCCCGGCGCCCGGCGGCUCGAGCCCGGGUAAGAUGAAGUCGUCUGCAUGCCGCCGGGCGCCAUGCCUGCAGGUCGACUCUAGAAAACAUG”, the binding signal (log2 enrichment (interaction score)) in experiment [1] is under -5.79; in experiment [2] it was -6.94; in experiment [4] it was -8.09; in experiment [3] it was -0.44.
Consider “GGCUAGAACUAGUGGAUCCCCCGGCGCCCGGCGGCUCGAGCCCGGGUAAGGGGUAAUAGUCUGCAUGCCGCCGGGCGCCAUGCCUGCAGGUCGACUCUAGAAAACAUG”, for which the binding signal (log2 enrichment (interaction score)) in experiment [1] was under -6.38; in experiment [2], under -7.63; in experiment [4], under -7.77.
